Results: patent publication US7067486B2, “Acetylcholinesterase-derived peptides and uses thereof” (priority 1999, dated 2006)
Not every detail of the peptide structures is certain; ends, links or a residue may be inferred. Where no end group is shown, it is not given here.

Tests used:
CD34^+ cells = experiment: Viable cell expansion in CD34+ liquid cultures (trypan blue exclusion); format: cell-based, human
Excerpt: Cell Source: UCB was collected, following informed consent of the parents and with the approval of the Sourasky Medical Center Ethics Committee, as previously described [Grisaru et al. (1999a) Am. J. Obstet. Gynecol, 180, 1240–1243]. Following 1:1 (v/v) dilution in Iscove's modified Dulbecco medium (IMDM, Beit Haemek, Israel), mononuclear cells were separated using 3% gelatin (Difco, Detroit, Mich.) and Ficoll-Hypaque gradients (<1.077 g/ml; Pharmacia, Uppsala, Sweden) [Pick et al. (1998) Br. J. Haematol. 103, 639–50]. CD34^+ cells were enriched using CD34 immunoglobulin-coated magnetic beads (CD34 progenitor cell selection system, Dynal, Norway).CD34^+ cells analysis was performed by flow cytometry (Becton Dickinson Immunocytochemistry System Inc., San Jose, Calif.), using CD34-PE (Becton Dickinson Immunocytometry System, Inc.) and CD45-FITC (Dako, Glostrup, Denmark) monoclonal antibodies. […] Liquid Cultures: UCB CD34^+ cells were set for liquid cultures at a concentration of 10^5/mL in IMDM, containing 10% autologous plasma, 2 mM L-glutamine (Sigma Chemical Co., St Louis, Mo.), penicillin ([…]), streptomycin ([…]), amphotericin B (2×10^−5 M) (Sigma Chemical Co.), and heparin (20 IU/mL, Gibco, Grand Island, N.Y.), all in a fully humidified atmosphere at 37° C. and 5% CO2. The following elements were added where noted: • 1. Hematopoietic growth factors: Interleukin 3 (IL3, 5 ng/mL, Immunex, Seattle, Wash.), interleukin 6 (IL6, 50 ng/mL, R&D Systems, Minneapolis, Minn.), TPO (1 ng/mL, R&D Systems), stem cell factor (SCF, 10 ng/mL, R&D Systems), FLT-3 ligand (FLT3, 50 ng/mL, R&D Systems), granulocyte-macrophage colony stimulating factor (GM-CSF, 50 ng/mL, Biogenesis Ltd, Bournemouth, UK) and combinations of the above, for 24 hr to 28 days (supplemented every 4 days). • 2. Endothlial Growth factors: Epidermal growth factor (EGF 10 ng/ml, Sigma Chemical Co.), basic Fibroblast growth factor (bFGF 20 ng/ml, Sigma Chemical Co.) incubated in a serum free medium (SFM) for 48 hr. • 3. […] AChE C-terminal peptides: The following C-terminal peptides of the AChE synaptic (ASP, also denoted SEQ ID: No. 2) and readthrough (ARP, also denoted SEQ ID: No. 1) isoforms were synthesized using a 433A peptide synthesizer (PE Applied Biosystems, Inc., Norwalk, Conn.). • ASP: 1-[…]-40, also denoted as SEQ ID: No. 2. • ARP: 1-[…]-26, also denoted as SEQ ID: No. 1. […]

[1] = system: AChEmRNA transcripts (S, E, R); experiment: In situ hybridization of AChEmRNA transcripts in cultured CD34+ cells, confocal quantification; format: cell-based, human; settings: 24 hr; 50 and 100 ng/ml tested
[2] = system: transformed bone marrow endothelial cells; experiment: BrdU incorporation in transformed bone marrow endothelial cells; format: cell-based; settings: 48 hrs
FVB/N mice = experiment: Hematopoietic response after confined swim stress (bone marrow anti-ARP labeling, WBC count); format: in vivo, mouse; settings: 24 hours
[3] = system: Schaffer collaterals-CA1 synaptic pathway; experiment: LTP in hippocampal slices from injected mice; format: in vivo, mouse; settings: i.p. 0.1 mg/Kg body weight; slices 24 hr later

Sequence: GMQGPAGSGWEEGSGSPPGVTPLFSP [ARP]
- formation of hematon bodies (CD34^+ cells; 28-day liquid cultures, EAC+ARP without or with SCF): facilitate the formation of hematon bodies
- expansion of viable cells in long-term culture (CD34^+ cells; ARP added to early-acting cytokines (IL3, IL6, TPO, FLT3), with or without SCF, within 28 days): greater than 2000 fold
- increase in number of viable cells (CD34^+ cells; ARP alone, no growth factors, 2 weeks, 50 ng/ml, p<0.008): more than 10 fold
- Total viable cells (CD34^+ cells; day 14, seeded at 50,000 cells/well, ARP 2 nM, cortisol 1.2 μM, ASP 2 nM, SCF 50 ng/ml, AS1 20 pM, PBAN 2 nM): 570.0 cells per culture × 10^−3
- ARP concentration of peak activity on AChEmRNA transcripts [1]: 50 ng/mL
- BrdU uptake, ARP combined with endothelial growth factors ([2]; 2 nM ARP with bFGF 20 ng/ml and EGF 10 ng/ml): more pronounced
- BrdU uptake ([2]; 2 nM ARP, serum free medium): increased
- peripheral blood WBC counts, stressed mice (FVB/N mice; 0.1 mg/kg ARP or 30 ng/kg AS1 after stress): enhancement
- bone marrow cells labeled with anti-ARP antibodies, stressed mice (FVB/N mice; injected immediately after stress, 0.1 mg/kg ARP or 30 ng/kg AS1): intensified labeling and increased the number of small positive cells
- slow onset of LTP [3]: 15 min
